Experimental data published in PMC7394235.
These are yes or no findings as the source states them, for the method shown. Tags and fused reporters may be left off the sequences shown.

By UniProt entry, the sequences of proteins in these tests, tags left out.
UniProt O23320: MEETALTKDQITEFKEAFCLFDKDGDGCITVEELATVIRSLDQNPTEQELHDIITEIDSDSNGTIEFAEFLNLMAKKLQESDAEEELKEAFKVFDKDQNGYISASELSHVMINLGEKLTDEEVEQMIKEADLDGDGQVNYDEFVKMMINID

Molecular target: T1, MLO10-CT-BD (C-terminal of AtMLO10, 434-569 aa) (Arabidopsis thaliana) (UniProt Q9FKY5)
T1 sequence: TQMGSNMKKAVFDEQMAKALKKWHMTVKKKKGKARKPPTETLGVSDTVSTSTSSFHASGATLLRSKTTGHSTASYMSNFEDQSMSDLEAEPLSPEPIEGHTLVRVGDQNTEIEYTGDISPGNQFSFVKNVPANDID
Assay: two-hybrid; MLO10-CT or its fragments P1-P5 as BD fusion, CaMs/CMLs as AD fusion (pGADT7), co-transformed into yeast AH109; selection on SD lacking Leu, Trp, His with 1.5 mM 3-AT; X-Gal filter assay

Substance: CML8 (AD fusion in pGADT7) (from UniProt O23320 1-151)
- binding: no binding
